{"sequences": {"note": "By UniProt entry, the sequences of proteins in these tests, tags left out. Where a name states a change or a piece, a line headed by the entry shows the natural chain unless it says otherwise.", "UniProt P09276": "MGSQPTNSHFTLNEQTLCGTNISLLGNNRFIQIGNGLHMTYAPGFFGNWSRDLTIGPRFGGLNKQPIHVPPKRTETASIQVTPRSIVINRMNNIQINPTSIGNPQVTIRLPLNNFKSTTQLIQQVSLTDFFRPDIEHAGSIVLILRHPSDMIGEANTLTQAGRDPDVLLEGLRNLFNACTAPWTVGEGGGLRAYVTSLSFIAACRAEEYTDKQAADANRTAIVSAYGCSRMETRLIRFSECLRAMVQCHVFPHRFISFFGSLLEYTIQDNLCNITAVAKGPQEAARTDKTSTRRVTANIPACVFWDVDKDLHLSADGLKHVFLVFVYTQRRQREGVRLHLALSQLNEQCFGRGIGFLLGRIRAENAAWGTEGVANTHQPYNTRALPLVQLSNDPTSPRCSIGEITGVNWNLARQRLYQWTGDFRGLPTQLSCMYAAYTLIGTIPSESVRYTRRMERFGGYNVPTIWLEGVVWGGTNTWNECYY"}, "source": "paper PMC7375649", "about": "“Varicella zoster virus encodes a viral decoy RHIM to inhibit cell death” (PLoS Pathogens, 2020)", "key": {"[1]": {"target": "YPet-ZBP1_(170-355)mutB (human) (UniProt Q9H171)", "experiment": "single molecule fluorescence confocal spectroscopy (two-colour coincidence); proteins alone or one mCherry-tagged and one YPet-tagged protein mixed, diluted out of 8 M urea to 0.35-0.7 uM in 25 mM NaH2PO4, 150 mM NaCl, 0.5 mM DTT, pH 7.4; room temperature; 488 and 561 nm lasers; both …"}, "[2]": {"target": "T1, YPet-ZBP1_(170-355) (human) (UniProt Q9H171)", "T1 sequence": "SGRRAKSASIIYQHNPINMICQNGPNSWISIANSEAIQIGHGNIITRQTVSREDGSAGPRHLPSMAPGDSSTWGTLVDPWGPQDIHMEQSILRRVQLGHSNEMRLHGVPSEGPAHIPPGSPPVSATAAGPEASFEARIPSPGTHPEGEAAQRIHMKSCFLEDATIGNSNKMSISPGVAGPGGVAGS", "experiment": "single molecule fluorescence confocal spectroscopy (two-colour coincidence); proteins alone or one mCherry-tagged and one YPet-tagged protein mixed, diluted out of 8 M urea to 0.35-0.7 uM in 25 mM NaH2PO4, 150 mM NaCl, 0.5 mM DTT, pH 7.4; room temperature; 488 and 561 nm lasers; both …"}, "[3]": {"target": "YPet-RIPK3_(387-518) (human) (UniProt Q9Y572)", "experiment": "single molecule fluorescence confocal spectroscopy (two-colour coincidence); proteins alone or one mCherry-tagged and one YPet-tagged protein mixed, diluted out of 8 M urea to 0.35-0.7 uM in 25 mM NaH2PO4, 150 mM NaCl, 0.5 mM DTT, pH 7.4; room temperature; 488 and 561 nm lasers; both …"}, "[4]": {"target": "YPet-RIPK1_(497-583) (human) (UniProt Q13546)", "experiment": "single molecule fluorescence confocal spectroscopy (two-colour coincidence); proteins alone or one mCherry-tagged and one YPet-tagged protein mixed, diluted out of 8 M urea to 0.35-0.7 uM in 25 mM NaH2PO4, 150 mM NaCl, 0.5 mM DTT, pH 7.4; room temperature; 488 and 561 nm lasers; both …"}, "[5]": {"target": "YPet-ZBP1_(170-355)mutA (human) (UniProt Q9H171)", "experiment": "single molecule fluorescence confocal spectroscopy (two-colour coincidence); proteins alone or one mCherry-tagged and one YPet-tagged protein mixed, diluted out of 8 M urea to 0.35-0.7 uM in 25 mM NaH2PO4, 150 mM NaCl, 0.5 mM DTT, pH 7.4; room temperature; 488 and 561 nm lasers; both …"}, "[6]": {"target": "T1, YPet-ZBP1_(170-355) (human)", "experiment": "confocal microscopy of fibrils formed from purified proteins; proteins mixed and dialysed at 5 uM from 8 M urea into 25 mM NaH2PO4, 150 mM NaCl, 0.5 mM DTT, pH 7.4, with ThT; YPet, mCherry and ThT fluorescence imaged; both purified"}, "[7]": {"target": "T1, YPet-ZBP1_(170-355) (human)", "experiment": "sodium dodecyl sulfate agarose gel electrophoresis (SDS-AGE); 5 uM per protein, alone or combined, dialysed from 8 M urea against assembly buffer overnight; incubated with water for 10 min before electrophoresis; monomer controls kept in 8 M urea; fluorescence imaging; both purified"}, "[8]": {"target": "T1, YPet-ZBP1_(170-355) (human)", "experiment": "transmission electron microscopy; protein solutions at 5 uM, alone or in mixtures, on carbon/formvar grids, stained with 2% uranyl acetate; both purified"}, "[9]": {"target": "T1, YPet-ZBP1_(170-355) (human)", "experiment": "sodium dodecyl sulfate agarose gel electrophoresis (SDS-AGE); as a8, but assembled samples incubated with 2% SDS at room temperature for 10 min before electrophoresis; both purified"}, "ZBP1-GFP (human) [10]": {"target": "ZBP1-GFP (human) (UniProt Q9H171)", "experiment": "co-IP; 293T cells co-transfected; insoluble fraction (pellet resuspended in 8 M urea, 20 mM Tris pH 8.0, overnight at 4 C); GFP-TrapA with the GFP-tagged protein as bait; Western blot"}, "[11]": {"target": "RIPK1 (co-immunoprecipitation) (human) (UniProt Q13546)", "experiment": "co-IP; ORF20 and RIPK1 'by this method' (co-transfected 293T cells, immunoprecipitation); no figure shown"}, "ZBP1-GFP (human) [12]": {"target": "ZBP1-GFP (human) (UniProt Q9H171)", "experiment": "co-IP; 293T cells co-transfected; soluble fraction (supernatant of DISC lysis buffer lysate: 1% Triton X-100, 10% glycerol, 150 mM NaCl, 2 mM EDTA, 30 mM Tris pH 7.5; 16,000 x g, 4 C); GFP-TrapA with the GFP-tagged protein as bait; Western blot"}}, "note": "These are yes or no findings as the source states them, for the method shown. For part of these data: A result given as binding can be weak or reduced; the word gives no strength. For part of these data: In cells and extracts the contact can be indirect.", "data": [{"substance": "ORF20_(1-114)-mCherry (from UniProt P09276) (domain or fragment)", "values": [{"measurement": "binding", "setting": "[1]", "value": "binds"}, {"measurement": "binding", "setting": "[2]", "value": "binds"}, {"measurement": "binding", "setting": "[3]", "value": "binds"}, {"measurement": "binding", "setting": "[4]", "value": "no binding (tested: 0.35-0.7 uM)"}, {"measurement": "binding", "setting": "[5]", "value": "binds weakly"}, {"measurement": "binding", "setting": "[6]", "value": "binds"}]}, {"substance": "Ub-ORF20_(1-114) (from UniProt P09276) (domain or fragment)", "values": [{"measurement": "binding", "setting": "[7]", "value": "binds"}, {"measurement": "binding", "setting": "[8]", "value": "binds"}, {"measurement": "binding", "setting": "[9]", "value": "binds"}]}, {"substance": "V5-tagged ORF20 (VZV capsid triplex subunit 1) (from UniProt P09276)", "values": [{"measurement": "binding", "setting": "ZBP1-GFP (human) [10]", "value": "binds"}, {"measurement": "binding", "setting": "[11]", "value": "no binding"}, {"measurement": "binding", "setting": "ZBP1-GFP (human) [12]", "value": "binds"}]}]}
